± gives the standard deviation of the averaged measurements. The list shows a part of the results.
Compound: Nc1nc2c(ncn2[C@@H]2O[C@H](COP(=O)(O)OP(=O)(O)OP(=O)(O)O)[C@@H](O)[C@H]2O)c(=O)[nH]1 [guanosine triphosphate]
Assay: NP40-soluble protein abundance relative to vehicle (solubility fold change) (ratio); higher = more soluble protein in presence of GTP
Method in brief: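 Jurkat crude lysate prepared with a Dounce homogeniser was treated at eight concentrations spanning 0.1 to 10 mM, 10 min at room temperature then 3 min at 37 °C. Solubilisation with 0.8% NP40 and benzonase and ultracentrifugation preceded TMT labelling of the supernatant for LC-MS/MS. Fold change against the detergent-processed vehicle was determined per replicate from vsn-normalised intensities, across three independent experiments.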

The chains behind the UniProt entries cited, without tags or fusion partners. Where a name states a change or a piece, a line headed by the entry shows the natural chain unless it says otherwise.
UniProt Q9Y4B4: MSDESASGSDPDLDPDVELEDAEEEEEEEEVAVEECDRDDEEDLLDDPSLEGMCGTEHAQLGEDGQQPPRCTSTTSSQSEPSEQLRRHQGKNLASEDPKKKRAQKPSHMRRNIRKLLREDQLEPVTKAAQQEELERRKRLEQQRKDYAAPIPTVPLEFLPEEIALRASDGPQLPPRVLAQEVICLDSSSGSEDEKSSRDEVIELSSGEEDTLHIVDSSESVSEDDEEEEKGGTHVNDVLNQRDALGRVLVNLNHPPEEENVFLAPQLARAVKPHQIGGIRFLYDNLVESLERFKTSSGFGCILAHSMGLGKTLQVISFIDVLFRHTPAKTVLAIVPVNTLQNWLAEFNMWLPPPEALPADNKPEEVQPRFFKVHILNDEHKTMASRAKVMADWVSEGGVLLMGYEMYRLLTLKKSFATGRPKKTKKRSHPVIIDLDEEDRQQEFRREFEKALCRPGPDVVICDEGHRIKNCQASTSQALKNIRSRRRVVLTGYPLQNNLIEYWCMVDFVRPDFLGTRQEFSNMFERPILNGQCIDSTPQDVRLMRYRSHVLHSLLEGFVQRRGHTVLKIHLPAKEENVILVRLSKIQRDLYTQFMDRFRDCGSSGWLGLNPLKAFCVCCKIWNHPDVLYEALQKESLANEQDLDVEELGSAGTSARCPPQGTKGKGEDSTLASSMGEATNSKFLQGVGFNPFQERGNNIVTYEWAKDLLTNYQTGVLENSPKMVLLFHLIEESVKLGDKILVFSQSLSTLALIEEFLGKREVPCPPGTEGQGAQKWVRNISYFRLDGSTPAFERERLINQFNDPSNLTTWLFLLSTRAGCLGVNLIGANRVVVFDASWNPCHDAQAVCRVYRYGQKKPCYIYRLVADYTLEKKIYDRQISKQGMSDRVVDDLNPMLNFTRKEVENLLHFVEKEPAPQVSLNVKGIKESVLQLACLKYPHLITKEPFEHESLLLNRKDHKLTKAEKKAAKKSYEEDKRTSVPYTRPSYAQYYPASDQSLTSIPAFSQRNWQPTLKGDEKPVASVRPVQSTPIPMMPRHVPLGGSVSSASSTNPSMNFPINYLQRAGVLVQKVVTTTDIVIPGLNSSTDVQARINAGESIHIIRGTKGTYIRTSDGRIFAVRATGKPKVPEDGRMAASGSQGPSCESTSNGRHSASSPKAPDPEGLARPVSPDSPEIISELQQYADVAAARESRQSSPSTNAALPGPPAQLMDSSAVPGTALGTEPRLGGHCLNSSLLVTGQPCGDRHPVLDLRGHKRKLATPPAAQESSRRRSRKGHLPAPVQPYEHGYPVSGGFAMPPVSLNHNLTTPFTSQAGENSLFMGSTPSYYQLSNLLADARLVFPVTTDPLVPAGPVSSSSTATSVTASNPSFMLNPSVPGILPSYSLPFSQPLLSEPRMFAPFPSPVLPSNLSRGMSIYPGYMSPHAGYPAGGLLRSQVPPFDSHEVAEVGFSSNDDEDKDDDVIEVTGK
UniProt Q9Y4X5: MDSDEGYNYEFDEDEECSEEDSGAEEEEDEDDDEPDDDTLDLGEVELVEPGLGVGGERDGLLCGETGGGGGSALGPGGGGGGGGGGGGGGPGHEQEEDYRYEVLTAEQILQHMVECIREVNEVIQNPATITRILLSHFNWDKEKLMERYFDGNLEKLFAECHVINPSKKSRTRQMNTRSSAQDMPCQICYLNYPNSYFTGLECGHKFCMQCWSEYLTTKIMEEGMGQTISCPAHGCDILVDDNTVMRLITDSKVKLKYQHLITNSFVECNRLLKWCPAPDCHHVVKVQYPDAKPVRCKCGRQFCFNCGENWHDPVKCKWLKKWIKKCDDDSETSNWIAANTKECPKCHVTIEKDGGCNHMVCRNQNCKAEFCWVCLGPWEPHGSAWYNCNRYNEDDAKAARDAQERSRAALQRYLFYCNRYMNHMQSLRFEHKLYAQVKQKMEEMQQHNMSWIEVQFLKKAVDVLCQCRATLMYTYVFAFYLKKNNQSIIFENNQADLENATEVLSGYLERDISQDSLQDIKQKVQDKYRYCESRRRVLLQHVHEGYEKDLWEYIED
UniProt Q9Y2C4: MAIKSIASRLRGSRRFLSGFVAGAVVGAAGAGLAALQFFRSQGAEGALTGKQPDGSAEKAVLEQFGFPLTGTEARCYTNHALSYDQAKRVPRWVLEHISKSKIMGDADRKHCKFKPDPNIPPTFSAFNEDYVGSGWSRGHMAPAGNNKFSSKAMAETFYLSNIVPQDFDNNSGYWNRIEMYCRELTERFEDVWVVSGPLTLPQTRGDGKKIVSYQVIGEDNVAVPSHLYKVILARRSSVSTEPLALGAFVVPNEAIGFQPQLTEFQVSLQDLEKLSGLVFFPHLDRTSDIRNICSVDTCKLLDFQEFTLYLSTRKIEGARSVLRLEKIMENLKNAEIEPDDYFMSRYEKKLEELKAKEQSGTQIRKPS
UniProt Q9Y608: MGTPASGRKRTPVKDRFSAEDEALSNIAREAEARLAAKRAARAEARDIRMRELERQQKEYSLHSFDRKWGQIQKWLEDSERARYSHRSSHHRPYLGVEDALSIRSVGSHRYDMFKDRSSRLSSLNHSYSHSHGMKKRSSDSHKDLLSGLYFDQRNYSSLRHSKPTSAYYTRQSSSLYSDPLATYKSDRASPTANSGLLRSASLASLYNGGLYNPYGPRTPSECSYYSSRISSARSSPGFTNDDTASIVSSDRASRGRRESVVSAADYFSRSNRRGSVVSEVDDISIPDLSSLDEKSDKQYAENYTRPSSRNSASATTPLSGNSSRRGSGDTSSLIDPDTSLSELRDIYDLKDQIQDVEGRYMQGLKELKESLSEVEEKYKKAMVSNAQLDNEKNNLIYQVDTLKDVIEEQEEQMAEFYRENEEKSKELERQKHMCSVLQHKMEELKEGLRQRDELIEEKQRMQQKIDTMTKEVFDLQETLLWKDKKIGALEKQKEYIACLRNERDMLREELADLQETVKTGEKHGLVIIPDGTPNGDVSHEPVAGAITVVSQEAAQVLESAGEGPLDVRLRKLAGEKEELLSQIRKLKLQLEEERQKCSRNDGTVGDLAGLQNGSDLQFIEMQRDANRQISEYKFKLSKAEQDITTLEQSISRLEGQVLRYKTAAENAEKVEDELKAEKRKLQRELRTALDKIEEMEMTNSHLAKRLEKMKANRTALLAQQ
UniProt Q9Y244: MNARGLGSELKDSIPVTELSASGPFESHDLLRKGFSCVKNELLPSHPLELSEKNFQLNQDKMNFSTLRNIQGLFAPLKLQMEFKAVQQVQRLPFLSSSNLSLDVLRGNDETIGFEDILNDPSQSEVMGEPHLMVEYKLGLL
UniProt Q9Y6A9: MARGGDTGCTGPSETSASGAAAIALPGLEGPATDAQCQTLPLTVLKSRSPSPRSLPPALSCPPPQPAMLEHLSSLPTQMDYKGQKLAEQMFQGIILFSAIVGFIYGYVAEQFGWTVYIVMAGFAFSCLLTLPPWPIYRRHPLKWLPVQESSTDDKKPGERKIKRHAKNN
UniProt Q9Y3X0: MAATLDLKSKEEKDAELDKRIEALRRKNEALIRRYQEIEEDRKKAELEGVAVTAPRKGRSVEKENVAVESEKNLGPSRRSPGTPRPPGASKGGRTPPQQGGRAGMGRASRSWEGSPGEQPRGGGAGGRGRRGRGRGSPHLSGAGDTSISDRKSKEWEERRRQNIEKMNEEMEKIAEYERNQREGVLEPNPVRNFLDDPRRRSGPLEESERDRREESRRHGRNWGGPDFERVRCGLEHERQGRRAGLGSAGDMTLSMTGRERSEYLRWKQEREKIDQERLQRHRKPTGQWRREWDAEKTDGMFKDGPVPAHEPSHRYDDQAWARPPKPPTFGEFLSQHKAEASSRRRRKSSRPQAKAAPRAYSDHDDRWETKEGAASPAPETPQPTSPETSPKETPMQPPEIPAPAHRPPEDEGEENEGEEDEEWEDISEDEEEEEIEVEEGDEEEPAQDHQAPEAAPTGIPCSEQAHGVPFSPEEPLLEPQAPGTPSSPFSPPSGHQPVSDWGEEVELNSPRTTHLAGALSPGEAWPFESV
UniProt Q9Y5L4: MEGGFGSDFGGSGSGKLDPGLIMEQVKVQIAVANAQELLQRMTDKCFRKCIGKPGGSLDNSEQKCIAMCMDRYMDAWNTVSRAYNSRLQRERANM
UniProt Q9Y2I1: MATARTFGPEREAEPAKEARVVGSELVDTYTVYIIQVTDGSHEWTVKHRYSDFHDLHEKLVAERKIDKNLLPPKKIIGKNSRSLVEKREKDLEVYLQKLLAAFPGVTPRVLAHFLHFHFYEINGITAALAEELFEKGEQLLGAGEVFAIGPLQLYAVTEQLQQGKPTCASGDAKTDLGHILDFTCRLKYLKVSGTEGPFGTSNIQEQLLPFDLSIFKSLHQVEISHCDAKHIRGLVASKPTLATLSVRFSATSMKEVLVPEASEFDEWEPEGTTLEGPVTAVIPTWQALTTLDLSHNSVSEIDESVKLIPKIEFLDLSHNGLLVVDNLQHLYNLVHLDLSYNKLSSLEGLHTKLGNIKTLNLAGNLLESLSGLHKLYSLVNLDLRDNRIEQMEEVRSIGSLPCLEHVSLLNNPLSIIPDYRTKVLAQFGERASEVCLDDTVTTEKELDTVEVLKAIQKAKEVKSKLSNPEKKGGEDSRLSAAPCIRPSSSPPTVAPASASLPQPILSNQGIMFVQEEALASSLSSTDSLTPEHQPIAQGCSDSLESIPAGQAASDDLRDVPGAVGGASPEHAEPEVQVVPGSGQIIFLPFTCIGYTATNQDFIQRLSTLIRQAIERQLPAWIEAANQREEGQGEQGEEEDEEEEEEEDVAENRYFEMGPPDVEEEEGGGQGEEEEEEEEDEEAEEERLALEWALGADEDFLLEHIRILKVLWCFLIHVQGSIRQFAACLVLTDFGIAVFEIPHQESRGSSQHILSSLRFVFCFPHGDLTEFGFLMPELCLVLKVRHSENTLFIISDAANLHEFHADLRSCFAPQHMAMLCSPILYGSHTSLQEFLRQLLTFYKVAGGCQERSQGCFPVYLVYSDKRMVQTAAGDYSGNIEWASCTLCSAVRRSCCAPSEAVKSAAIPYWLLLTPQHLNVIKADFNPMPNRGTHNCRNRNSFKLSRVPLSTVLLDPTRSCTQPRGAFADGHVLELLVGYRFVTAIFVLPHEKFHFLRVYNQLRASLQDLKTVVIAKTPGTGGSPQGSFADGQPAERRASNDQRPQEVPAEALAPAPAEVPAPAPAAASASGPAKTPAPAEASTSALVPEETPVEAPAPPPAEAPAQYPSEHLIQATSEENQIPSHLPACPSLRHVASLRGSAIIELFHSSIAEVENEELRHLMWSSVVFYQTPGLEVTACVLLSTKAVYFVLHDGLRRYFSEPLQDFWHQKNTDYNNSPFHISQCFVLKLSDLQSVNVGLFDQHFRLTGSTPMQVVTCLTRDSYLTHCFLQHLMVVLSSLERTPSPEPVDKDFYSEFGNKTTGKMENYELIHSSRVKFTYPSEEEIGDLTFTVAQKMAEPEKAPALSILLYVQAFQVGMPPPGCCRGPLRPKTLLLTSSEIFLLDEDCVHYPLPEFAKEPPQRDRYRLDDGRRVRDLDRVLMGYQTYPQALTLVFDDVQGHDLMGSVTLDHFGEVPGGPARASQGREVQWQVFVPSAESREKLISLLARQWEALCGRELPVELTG
UniProt Q9Y3I0: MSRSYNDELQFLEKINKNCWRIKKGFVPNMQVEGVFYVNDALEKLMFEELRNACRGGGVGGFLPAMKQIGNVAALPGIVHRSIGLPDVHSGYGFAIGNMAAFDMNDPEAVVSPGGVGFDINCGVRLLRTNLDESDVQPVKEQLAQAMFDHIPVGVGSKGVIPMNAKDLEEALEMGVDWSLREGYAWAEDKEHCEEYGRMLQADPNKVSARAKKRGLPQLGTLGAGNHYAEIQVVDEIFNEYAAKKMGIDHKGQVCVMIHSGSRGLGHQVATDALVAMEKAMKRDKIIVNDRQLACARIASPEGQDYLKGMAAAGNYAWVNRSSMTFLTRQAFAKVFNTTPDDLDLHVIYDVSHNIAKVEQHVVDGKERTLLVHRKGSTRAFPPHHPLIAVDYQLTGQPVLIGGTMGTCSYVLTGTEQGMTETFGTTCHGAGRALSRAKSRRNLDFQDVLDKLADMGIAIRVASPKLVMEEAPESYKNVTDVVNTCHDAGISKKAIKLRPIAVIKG
UniProt Q9UNE7: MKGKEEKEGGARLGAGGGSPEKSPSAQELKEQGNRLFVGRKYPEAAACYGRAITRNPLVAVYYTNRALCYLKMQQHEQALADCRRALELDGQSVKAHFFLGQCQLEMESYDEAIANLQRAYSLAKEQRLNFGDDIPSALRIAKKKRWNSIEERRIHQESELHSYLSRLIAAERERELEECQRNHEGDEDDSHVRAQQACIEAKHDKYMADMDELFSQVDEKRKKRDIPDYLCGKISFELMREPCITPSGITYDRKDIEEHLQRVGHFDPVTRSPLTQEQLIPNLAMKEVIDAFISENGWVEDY
UniProt Q9Y3P8: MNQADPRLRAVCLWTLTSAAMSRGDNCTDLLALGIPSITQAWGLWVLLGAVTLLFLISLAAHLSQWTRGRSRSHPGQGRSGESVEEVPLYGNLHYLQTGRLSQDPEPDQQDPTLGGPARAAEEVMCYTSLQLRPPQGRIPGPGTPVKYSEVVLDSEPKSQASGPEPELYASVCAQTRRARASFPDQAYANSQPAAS

Row | Target | NP40-soluble protein abundance (concentration: 0.1mM) | NP40-soluble protein abundance (concentration: 0.5mM) | NP40-soluble protein abundance (concentration: 1mM) | NP40-soluble protein abundance (concentration: 2mM) | NP40-soluble protein abundance (concentration: 4mM) | NP40-soluble protein abundance (concentration: 6mM) | NP40-soluble protein abundance (concentration: 8mM) | NP40-soluble protein abundance (concentration: 10mM)
1 | RAD54L2 (UniProt Q9Y4B4) | 1.04 ± 0.023 | 1.06 ± 0.036 | 1.03 ± 0.028 | 1.05 ± 0.033 | 1.02 ± 0.043 | 1.02 ± 0.019 | 1.01 ± 0.032 | 0.999 ± 0.051
2 | UniProt Q9Y376 and related entries | 0.992 ± 0.029 | 0.927 ± 0.026 | 0.899 ± 0.083 | 0.874 ± 0.015 | 0.872 ± 0.05 | 0.831 ± 0.035 | 0.814 ± 0.11 | 0.798 ± 0.091
3 | DRG1 (UniProt Q9Y295) | 0.958 ± 0.02 | 0.968 ± 0.028 | 0.896 ± 0.035 | 0.884 ± 0.035 | 0.964 ± 0.076 | 0.926 ± 0.044 | 0.93 ± 0.07 | 0.882 ± 0.077
4 | TAF6L (UniProt Q9Y6J9) | 1.12 ± 0.067 | 1.18 ± 0.04 | 1.17 ± 0.18 | 1.11 ± 0.11 | 1.21 ± 0.17 | 1.24 ± 0.17 | 1.23 ± 0.16 | 1.25 ± 0.14
5 | CD2AP (UniProt Q9Y5K6) | 0.957 ± 0.047 | 0.98 ± 0.041 | 0.975 ± 0.057 | 0.953 ± 0.075 | 0.938 ± 0.054 | 0.957 ± 0.062 | 0.97 ± 0.052 | 0.974 ± 0.064
6 | UniProt Q9Y2H6 and related entries | 1.02 ± 0.075 | 0.977 ± 0.031 | 0.9802 ± 0.0098 | 0.976 ± 0.032 | 0.979 ± 0.024 | 0.943 ± 0.037 | 0.924 ± 0.031 | 0.922 ± 0.081
7 | DIS3 (UniProt Q9Y2L1) | 1.04 ± 0.025 | 1.05 ± 0.058 | 0.976 ± 0.019 | 0.986 ± 0.066 | 0.971 ± 0.054 | 0.972 ± 0.03 | 0.938 ± 0.017 | 0.901 ± 0.056
8 | ARIH1 (UniProt Q9Y4X5) | 1.01 ± 0.035 | 1.02 ± 0.022 | 0.966 ± 0.045 | 0.942 ± 0.048 | 0.945 ± 0.068 | 0.93 ± 0.074 | 0.944 ± 0.051 | 0.924 ± 0.085
9 | UniProt Q9Y2C4 and related entries | 1.2 ± 0.083 | 1.12 ± 0.049 | 1.11 ± 0.083 | 1.14 ± 0.088 | 1.08 ± 0.033 | 1.07 ± 0.081 | 1.01 ± 0.034 | 1.03 ± 0.044
10 | UniProt Q9Y608 and related entries | 0.942 ± 0.037 | 0.919 ± 0.12 | 1.1 ± 0.08 | 1.08 ± 0.08 | 1.1 ± 0.049 | 1.07 ± 0.05 | 1.11 ± 0.028 | 1.21 ± 0.079
11 | UniProt Q9UPT9 and related entries | 1.15 ± 0.23 | 1.12 ± 0.15 | 0.994 ± 0.16 | 1.03 ± 0.16 | 1.04 ± 0.21 | 1.08 ± 0.15 | 1.01 ± 0.13 | 0.948 ± 0.12
12 | POMP (UniProt Q9Y244) | 0.87 ± 0.079 | 0.865 ± 0.045 | 1.05 ± 0.13 | 0.998 ± 0.032 | 0.989 ± 0.069 | 1.01 ± 0.051 | 1.02 ± 0.12 | 1.09 ± 0.14
13 | VPS4A (UniProt Q9UN37) | 0.977 ± 0.042 | 1.06 ± 0.017 | 1.08 ± 0.027 | 1.03 ± 0.025 | 1.02 ± 0.021 | 1.03 ± 0.037 | 1.05 ± 0.076 | 1.03 ± 0.087
14 | UniProt Q9Y6A9 and related entries | 0.932 ± 0.089 | 0.988 ± 0.052 | 0.921 ± 0.11 | 0.916 ± 0.094 | 0.89 ± 0.12 | 0.892 ± 0.1 | 0.867 ± 0.17 | 0.869 ± 0.098
15 | RNF114 (UniProt Q9Y508) | 0.95 ± 0.011 | 0.967 ± 0.032 | 0.924 ± 0.041 | 0.91 ± 0.068 | 0.895 ± 0.057 | 0.897 ± 0.056 | 0.876 ± 0.072 | 0.888 ± 0.084
16 | CCDC9 (UniProt Q9Y3X0) | 1.136 ± 0.0076 | 1.04 ± 0.059 | 1.22 ± 0.073 | 1.15 ± 0.034 | 1.163 ± 0.0089 | 1.18 ± 0.1 | 1.16 ± 0.043 | 1.26 ± 0.055
17 | UniProt Q9Y394 and related entries | 1.03 ± 0.059 | 0.984 ± 0.051 | 0.987 ± 0.049 | 0.958 ± 0.067 | 0.969 ± 0.07 | 0.926 ± 0.056 | 0.922 ± 0.061 | 0.895 ± 0.075
18 | USP20 (UniProt Q9Y2K6) | 1.08 ± 0.068 | 1.05 ± 0.17 | 1.06 ± 0.092 | 1.08 ± 0.1 | 1.04 ± 0.13 | 1.07 ± 0.13 | 1.05 ± 0.12 | 1 ± 0.087
19 | TIMM13 (UniProt Q9Y5L4) | 0.993 ± 0.28 | 0.964 ± 0.23 | 1.01 ± 0.15 | 0.999 ± 0.16 | 1 ± 0.26 | 1.03 ± 0.082 | 1.07 ± 0.12 | 1.02 ± 0.26
20 | NISCH (UniProt Q9Y2I1) | 0.994 ± 0.023 | 0.981 ± 0.021 | 0.985 ± 0.019 | 0.951 ± 0.012 | 0.94 ± 0.047 | 0.9379 ± 0.0056 | 0.921 ± 0.01 | 0.91 ± 0.022
21 | UniProt Q9Y5S9 and related entries | 0.914 ± 0.036 | 0.901 ± 0.056 | 0.955 ± 0.033 | 0.863 ± 0.082 | 0.853 ± 0.044 | 0.863 ± 0.08 | 0.871 ± 0.036 | 0.809 ± 0.048
22 | TSC22D4 (UniProt Q9Y3Q8) | 0.942 ± 0.05 | 0.999 ± 0.13 | 1.08 ± 0.093 | 1.04 ± 0.09 | 1 ± 0.074 | 1.04 ± 0.15 | 1.07 ± 0.079 | 1.06 ± 0.02
23 | UniProt Q9Y3I0 | 0.964 ± 0.036 | 0.981 ± 0.038 | 0.955 ± 0.031 | 0.948 ± 0.036 | 0.971 ± 0.026 | 1 ± 0.034 | 0.998 ± 0.029 | 0.983 ± 0.035
24 | UniProt Q9Y6Q9 and related entries | 1.05 ± 0.14 | 1.01 ± 0.036 | 1.08 ± 0.12 | 1.05 ± 0.12 | 1.01 ± 0.12 | 1.04 ± 0.1 | 1.06 ± 0.16 | 1.05 ± 0.09
25 | STUB1 (UniProt Q9UNE7) | 0.948 ± 0.056 | 0.8985 ± 0.0031 | 1.02 ± 0.1 | 1.03 ± 0.027 | 1.01 ± 0.078 | 1.01 ± 0.012 | 1.01 ± 0.049 | 1.03 ± 0.081
26 | UniProt Q9Y3C4 and related entries | 1.02 ± 0.058 | 1.04 ± 0.12 | 0.964 ± 0.1 | 0.989 ± 0.028 | 0.98 ± 0.052 | 0.954 ± 0.085 | 0.918 ± 0.056 | 0.941 ± 0.017
27 | UniProt Q9Y3P8 and related entries | 0.993 ± 0.044 | 1.03 ± 0.053 | 1.08 ± 0.0043 | 1.14 ± 0.14 | 1.12 ± 0.019 | 1.011 ± 0.0093 | 1.03 ± 0.042 | 1.09 ± 0.04
28 | SAMM50 (UniProt Q9Y512) | 1.13 ± 0.15 | 1.18 ± 0.19 | 0.999 ± 0.1 | 1.13 ± 0.29 | 1.11 ± 0.19 | 1.1 ± 0.22 | 0.985 ± 0.098 | 0.949 ± 0.17

Exported field by field: part of the list above.
TIMM13 (UniProt Q9Y5L4)
  NP40-soluble protein abundance (concentration: 0.1mM): 0.993 ± 0.28
  NP40-soluble protein abundance (concentration: 0.5mM): 0.964 ± 0.23
  NP40-soluble protein abundance (concentration: 1mM): 1.01 ± 0.15
  NP40-soluble protein abundance (concentration: 2mM): 0.999 ± 0.16
  NP40-soluble protein abundance (concentration: 4mM): 1 ± 0.26
  NP40-soluble protein abundance (concentration: 6mM): 1.03 ± 0.082
  NP40-soluble protein abundance (concentration: 8mM): 1.07 ± 0.12
  NP40-soluble protein abundance (concentration: 10mM): 1.02 ± 0.26
NISCH (UniProt Q9Y2I1)
  NP40-soluble protein abundance (concentration: 0.1mM): 0.994 ± 0.023
  NP40-soluble protein abundance (concentration: 0.5mM): 0.981 ± 0.021
  NP40-soluble protein abundance (concentration: 1mM): 0.985 ± 0.019
  NP40-soluble protein abundance (concentration: 2mM): 0.951 ± 0.012
  NP40-soluble protein abundance (concentration: 4mM): 0.94 ± 0.047
  NP40-soluble protein abundance (concentration: 6mM): 0.9379 ± 0.0056
  NP40-soluble protein abundance (concentration: 8mM): 0.921 ± 0.01
  NP40-soluble protein abundance (concentration: 10mM): 0.91 ± 0.022

From the supplement of paper PMC6411743
